Data on 1 compound can be found in patent US4997828A, “Method of weight control by low level administration of cobalt protoporphyrin or cobalt mesoporphyrin” (The Rockefeller University, priority 1989, dated 1991).

The data set is described as follows: Body weight and naso-anal length of adult male rats after weekly subcutaneous injections (Example 1). Format: in vivo, Sprague-Dawley rat. The settings on record: for Naso-anal length: 10 serial doses of CoPP 1 μmol/kg b.w. s.c., n = 6. The method, then:
Adult male Sprague-Dawley rats (≈250 g) were injected subcutaneously with CoPP 1 μmol/kg b.w. (12 rats) or vehicle (12 rats) on day 0. Thereafter, injections (Vertical arrows in FIG. 1) were repeated weekly until 10 doses had been given. Animals were allowed Purina rat chow and water ad libitum and animal weights were recorded thrice weekly; means are presented in FIG. 1 ( is control and treated animals). On day 71, 6 control rats and 6 CoPP-treated rats were sacrificed, blood collected for hormone determinations and hepatic mitochondrial and microsomal fractions prepared for biochemical assays. These procedures were repeated at day 124 for the remainder of the animals.
The effects of 10 serial doses of CoPP 1 μmol/kg b.w. on weight,
*n = 12; for all other parameters, n = 6 animals per treatment.
**As calculated by Student's Ttest. The only significant changes are in […]

On to `C=CC1=C(C)c2cc3[n-]c(cc4nc(cc5[n-]c(cc1n2)c(C)c5CCC(=O)[O-])C(CCC(=O)[O-])=C4C)c(C)c3C=C.[Co+2].[H+].[H+]` [CoPP, cobalt protoporphyrin], for which the “Difference in naso-anal length vs control” value (CoPP 1 μmol/kg b.w. s.c. weekly, 10 doses) was “no significant differences”. Besides, the Naso-anal length was determined as 25.8 ± 0.11 cm (Day 71, control 26.6 ± 0.33) and 27 ± 0.11 cm (Day 124, control 27 ± 0.22).
